“And” between values parts separate entries of the source, which are not always exact repeats. Identical values can stand only once.
System: gastrocnemius (GA) muscle
Test: In vivo muscle force after downhill treadmill run, aged mice (Example 1)
Design: species or system mouse
Conditions: aged gastrocnemius week 5 post-exercise
Method: Aged mice (18 mo.) were subjected to downhill treadmill run for 2 consecutive weeks. During week 1, mice ran daily for 5 days and rested on days 6 and 7. Two hours after each treadmill run during week 1, each (lateral and medial) gastrocnemius (GA) muscle from both legs of each mouse was injected with a dose of either PBS (vehicle control) or 13 nM dmPGE2 (experimental group). During week 2, mice were subjected to 5 days treadmill run only. The treadmill run was performed using the Exer3/6 (Columbus Instruments). Mice ran for 10 minutes on the treadmill at 20 degrees downhill, starting at a speed of 7 meters/min. After 3 min, the speed was increased by 1 meter/min to a final speed of 14 meter/min. […] Force measurements were on the GA muscles at week 5 based on a protocol published previously^5. Briefly, for each mouse, an incision was made to expose the GA. We severed the calcaneus bone with intact achilles tendon and attached the tendon-bone complex to a 300C-LR force transducer (Aurora Scientific) with a thin metal hook. The muscles and tendons were kept moist by periodic wetting with saline (0.9% sodium chloride) solution. The lower limb was immobilized below the knee by a metal clamp without compromising the blood supply to the leg. The mouse was under inhaled anesthetic (2% isofluorane) during the entire force measuring procedure and body temperature was maintained by a heat lamp. In all measurements, we used 0.1-ms pulses at a predetermined supramaximal stimulation voltage. The GA muscles were stimulated via the proximal sciatic nerve using a bipolar electrical stimulation cuff delivering a constant current of 2 mA (square pulse width 0.1 ms). GA muscles were stimulated with a single 0.1-ms pulse for twitch force measurements, and a train of 150 Hz for 0.3 s pulses for tetanic force measurements. We performed five twitch and then five tetanic measurements on each muscle, with 2-3 min recovery between each measurement with n=5 mice per group. Data were collected with a PCI-6251 acquisition card (National Instruments) and analyzed in Matlab. We calculated specific force values by normalizing the force measurements by the muscle physiological cross-sectional areas (PCSAs), which were similar between the control and the experimental PGE2 treated group (Table 2). PCSA (measured in mm^2) was calculated according to the following equation^12: PCSA (mm^2)=[mass (g)×Cos θ]÷[ρ(g/mm^3)×fiber length (mm)], where θ is pennation angle of the fiber and ρ is muscle density (0.001056 g/mm^3). Statistical Analyses

## CCCCC(C)(C)[C@H](O)/C=C/[C@H]1[C@H](O)CC(=O)[C@@H]1C/C=C\CCCC(=O)O [dmPGE2, 16,16-dimethyl prostaglandin E2]
Group average
  PCSA (medial + lateral), average: 25.63 mm^2
Single leg of single mouse
  Cosine(θ): 0.98 (3×) and 0.96 and 0.91 and 0.97 (3×) and 0.94
  GA Mass: 0.25 g and 0.16 g (3×) and 0.14 g (3×) and 0.17 g (2×)
  Pennation angle θ: 12 degree (2×) and 16 degree and 14 degree (2×) and 13 degree (2×) and 11 degree (2×)

From patent US11969433B2, “Compositions and methods for muscle regeneration using prostaglandin E2” (The Board of Trustees of the Leland Stanford Junior …, priority 2016, dated 2024)
